Measured values taken from PubChem BioAssay AID248 (DTP/NCI, 2004).
The list shows only some results of the screen, not a fair sample: it is rich in T/C values a quarter to a half above the control, in often repeated tests (any T/C) and in doses without a T/C. Further doses and runs are listed elsewhere. T/C gives the treated animals as a percentage of the vehicle group. Some entries give survivors of the animals treated and no T/C: the source holds a T/C of zero for them, seemingly a mark for toxic or unscored doses. Some doses without a T/C left all or most animals alive at the check, yet need not have been tolerated: survival well below the control is almost never listed, so the zero probably covers shortened survival too. Counts of survivors are from the toxicity check (mostly the fifth day) where no day follows; animals may have died later. Schedules are NCI's codes, read here as Q, the interval in days (D) or hours (H), X, the number of doses. Some structures stand for samples that the source files as different forms (salt, stereo form or complex); doses refer to the form tested. Some schedule codes hold Z or #, which are not explained here. For survival time, the PubChem record calls one and a half times the control and up active, and a quarter to a half above the control has no call in these data; cut-offs in other NCI protocols can differ. Some entries hold several experiments; the values are given in rising order. Additions like (4×) say how often a value occurs here.

Tested on: L1210 leukemia ip in BDF1 mice, survival T/C
Test: NCI In Vivo Anticancer Drug Screen. Data for tumor model L1210 Leukemia (intraperitoneal) in B6D2F1 (BDF1) mice
Conditions: higher T/C = longer survival
[1] = T/C endpoint: mean survival time, dose: 400.0 mg/kg/injection, schedule: Q01DX009 (ip), vehicle: saline
[2] = T/C endpoint: mean survival time, dose: 400.0 mg/kg/injection, schedule: Q01DX001 (ip), vehicle: saline
[3] = T/C endpoint: mean survival time, dose: 150.0 mg/kg/injection, schedule: Q01DX001 (ip), vehicle: saline
[4] = T/C endpoint: mean survival time, dose: 300.0 mg/kg/injection, schedule: Q01DX001 (ip), vehicle: saline
[5] = T/C endpoint: mean survival time, dose: 400.0 mg/kg/injection, schedule: Q04DX003 (ip), vehicle: saline with Tween-80
[6] = T/C endpoint: mean survival time, dose: 400.0 mg/kg/injection, schedule: Q01DX001 (ip), vehicle: carboxymethylcellulose (CMC)
[7] = T/C endpoint: mean survival time, dose: 50.0 mg/kg/injection, schedule: Q01DX009 (ip), vehicle: saline with Tween-80
[8] = T/C endpoint: mean survival time, dose: 100.0 mg/kg/injection, schedule: Q01DX009 (ip), vehicle: saline with Tween-80
[9] = T/C endpoint: mean survival time, dose: 200.0 mg/kg/injection, schedule: Q01DX009 (ip), vehicle: saline with Tween-80

For `Nc1ncnc2[nH]ncc12`, the T/C (T/C endpoint: mean survival time, dose: 12.0 mg/kg/injection, schedule: Q02DX010 (ip), vehicle: carboxymethylcellulose (CMC)) was 104, 105 (2×), 117, 120, 121 % of control, the T/C (T/C endpoint: mean survival time, dose: 18.76 mg/kg/injection, schedule: Q02DX010 (ip), vehicle: carboxymethylcellulose (CMC)) was 93, 105, 113, 121, 130, 138 % of control and the T/C (T/C endpoint: mean survival time, dose: 28.0 mg/kg/injection, schedule: Q02DX010 (ip), vehicle: carboxymethylcellulose (CMC)) was 110 (2×), 111, 112, 136, 142 % of control. The T/C (T/C endpoint: mean survival time, dose: 42.0 mg/kg/injection, schedule: Q02DX010 (ip), vehicle: carboxymethylcellulose (CMC)) was 102, 113, 115, 120, 128, 132 % of control, the survivor count (T/C endpoint: mean survival time, dose: 50.0 mg/kg/injection, schedule: Q01DX009 (ip), vehicle: saline) was 6 of 6 and the T/C (T/C endpoint: mean survival time, dose: 63.0 mg/kg/injection, schedule: Q02DX010 (ip), vehicle: carboxymethylcellulose (CMC)) was 104, 113, 115 (2×), 134, 144 % of control. For the same compound, the survivor count (T/C endpoint: mean survival time, dose: 100.0 mg/kg/injection, schedule: Q01DX009 (ip), vehicle: saline) was 6 of 6, the survivor count (T/C endpoint: mean survival time, dose: 200.0 mg/kg/injection, schedule: Q01DX009 (ip), vehicle: saline) was 1 of 6 and the survivor count (T/C endpoint: mean survival time, dose: 273.0 mg/kg/injection, schedule: Q01DX001 (ip), vehicle: carboxymethylcellulose (CMC)) was 3 of 6. For the same compound, the survivor count [1] was 0 of 6, the survivor count (T/C endpoint: mean survival time, dose: 410.0 mg/kg/injection, schedule: Q01DX001 (ip), vehicle: carboxymethylcellulose (CMC)) was 0 of 6 and the T/C (T/C endpoint: median survival time, dose: 12.0 mg/kg/injection, schedule: Q01DX009 (ip), vehicle: saline) was 127 % of control.
With `Clc1ccc([S][Pb]([c]2ccccc2)([c]2ccccc2)[c]2ccccc2)cc1` the survivor count (T/C endpoint: mean survival time, dose: 400.0 mg/kg/injection, schedule: Q04DX002 (ip), vehicle: gum acacia) was 3 of 3.
`C=CC1CN2CCC1CC2C(O)c1ccnc2ccc(OC)cc12` (stereo not drawn) was tested, and the survivor count (T/C endpoint: mean survival time, dose: 100.0 mg/kg/injection, schedule: Q01DX001 (ip), vehicle: saline) was 6 of 6, the survivor count (T/C endpoint: mean survival time, dose: 150.0 mg/kg/injection, schedule: Q01DX009 (ip), vehicle: saline with Tween-80) was 0 of 6 and the survivor count (T/C endpoint: mean survival time, dose: 219.6 mg/kg/injection, schedule: Q01DX Z (ip), vehicle: other) was 5 of 10. The survivor count (T/C endpoint: mean survival time, dose: 300.0 mg/kg/injection, schedule: Q01DX009 (ip), vehicle: saline with Tween-80) was 0 of 6 and the survivor count [2] was 0 of 6.
In the case of `NNC(=O)c1ccccc1CO`, the survivor count (T/C endpoint: mean survival time, dose: 400.0 mg/kg/injection, schedule: Q01DX001 (ip), vehicle: saline with Tween-80) is reported as 1 of 6.
For `C/C(=N\N=C(N)N)c1cccc(NC(=S)Nc2cccc(/C(C)=N/N=C(N)N)c2)c1`, the survivor count (T/C endpoint: mean survival time, dose: 40.0 mg/kg/injection, schedule: Q01DX005 (ip), vehicle: saline with Tween-80) was 2 of 6, the survivor count (T/C endpoint: mean survival time, dose: 80.0 mg/kg/injection, schedule: Q01DX005 (ip), vehicle: saline with Tween-80) was 0 of 6 and the survivor count (T/C endpoint: mean survival time, dose: 160.0 mg/kg/injection, schedule: Q01DX005 (ip), vehicle: saline with Tween-80) was 0 of 6. The survivor count (T/C endpoint: mean survival time, dose: 320.0 mg/kg/injection, schedule: Q01DX005 (ip), vehicle: saline with Tween-80) was 0 of 6.
For `CN(N=O)C(=O)NC1CC2CCC1C2` (stereo not drawn), the survivor count (T/C endpoint: mean survival time, dose: 750.0 mg/kg/injection, schedule: Q01DX001 (ip), vehicle: other) was 3 of 6 and the survivor count (T/C endpoint: mean survival time, dose: 1000.0 mg/kg/injection, schedule: Q01DX001 (ip), vehicle: other) was 0 of 6.
With `CCN(CC)Cc1cc(Nc2cc(OC)cc3cccnc23)ccc1O` the survivor count (T/C endpoint: mean survival time, dose: 75.0 mg/kg/injection, schedule: Q01DX001 (ip), vehicle: saline) was 0 of 6, the survivor count [3] was 0 of 6 and the survivor count [4] was 0 of 6.
For `CCc1cc(C)cc(OC(=O)Nc2ccccc2)c1`, the survivor count [5] was 6 of 6.
With `CC(=O)OC1COC(n2cnc3c(=O)[nH]cnc32)C(OC(C)=O)C1OC(C)=O` (stereo not drawn) the T/C (T/C endpoint: mean survival time, dose: 50.0 mg/kg/injection, schedule: Q01DX001 (ip), vehicle: saline) was 129 % of control.
`Cc1cc(C)c(S(=O)(=O)NN)c(C)c1` was tested, and the survivor count [5] was 3 of 6.
In the case of `C[n+]1cccc(CNC(=O)COc2ccc(Cl)c(Cl)c2)c1`, the survivor count (T/C endpoint: mean survival time, dose: 200.0 mg/kg/injection, schedule: Q01DX001 (ip), vehicle: saline) is reported as 3 of 6 and the survivor count [2] is reported as 1 of 6.
With `CCCCCCC(O)C[N+](=O)[O-]` (stereo not drawn) the survivor count [5] was 0 of 6.
In the case of `Cc1cc(C(=O)Nc2ccc(NC3=NCCN3)cc2)cc(C(=O)Nc2ccc(NC3=NCCN3)cc2)c1`, the survivor count (T/C endpoint: mean survival time, dose: 24.0 mg/kg/injection, schedule: Q01DX Z (ip), vehicle: saline) is reported as 0 of 6, the survivor count (T/C endpoint: mean survival time, dose: 30.0 mg/kg/injection, schedule: Q01DX Z (ip), vehicle: saline) is reported as 0 of 6 and the survivor count (T/C endpoint: mean survival time, dose: 60.0 mg/kg/injection, schedule: Q01DX Z (ip), vehicle: saline) is reported as 0 of 6. For the same compound, the survivor count (T/C endpoint: mean survival time, dose: 120.0 mg/kg/injection, schedule: Q01DX Z (ip), vehicle: saline) was 0 of 6.
`[Cu+2].[NH-]C(CCC(N)=O)C(=O)O.[NH-]C(CCC(N)=O)C(=O)O` (stereo not drawn) was tested, and the survivor count (T/C endpoint: mean survival time, dose: 100.0 mg/kg/injection, schedule: Q04DX003 (ip), vehicle: saline) was 0 of 6, the survivor count (T/C endpoint: mean survival time, dose: 200.0 mg/kg/injection, schedule: Q04DX003 (ip), vehicle: saline) was 0 of 6 and the survivor count (T/C endpoint: mean survival time, dose: 400.0 mg/kg/injection, schedule: Q04DX003 (ip), vehicle: saline) was 0 of 6.
With `CCOc1c[n+](C)c(/C=C/c2ccccc2)s1` the survivor count (T/C endpoint: mean survival time, dose: 50.0 mg/kg/injection, schedule: Q01DX001 (ip), vehicle: carboxymethylcellulose (CMC)) was 0 of 4, the survivor count (T/C endpoint: mean survival time, dose: 80.0 mg/kg/injection, schedule: Q01DX001 (ip), vehicle: carboxymethylcellulose (CMC)) was 0 of 4 and the survivor count (T/C endpoint: mean survival time, dose: 100.0 mg/kg/injection, schedule: Q01DX001 (ip), vehicle: carboxymethylcellulose (CMC)) was 2 of 4. The survivor count (T/C endpoint: mean survival time, dose: 200.0 mg/kg/injection, schedule: Q01DX001 (ip), vehicle: carboxymethylcellulose (CMC)) was 0 of 4 and the survivor count [6] was 0 of 4.
`CC1(C)N=C(N)N=C(N)N1NC(=O)c1ccc(F)cc1` was tested, and the survivor count [1] was 3 of 6.
`CC(=O)Nc1cc2c(cc1Br)-c1ccccc1C2O` (stereo not drawn) was tested, and the survivor count (T/C endpoint: mean survival time, dose: 375.0 mg/kg/injection, schedule: Q01DX Z (ip), vehicle: other) was 3 of 6, the survivor count [6] was 1 of 4 and the survivor count (T/C endpoint: mean survival time, dose: 1000.0 mg/kg/injection, schedule: Q01DX Z (ip), vehicle: saline) was 0 of 6.
With `C[N+]1(C)C2CCC1CC(=NO)C2` the survivor count [3] was 0 of 6 and the survivor count [4] was 0 of 6.
For `Clc1nc2ccccc2nc1CI`, the survivor count (T/C endpoint: mean survival time, dose: 25.0 mg/kg/injection, schedule: Q01DX009 (ip), vehicle: Klucel (hydroxypropylcellulose) (HPC)) was 2 of 6, the survivor count [7] was 0 of 6 and the survivor count [8] was 0 of 6. For the same compound, the survivor count (T/C endpoint: mean survival time, dose: 100.0 mg/kg/injection, schedule: Q04DX003 (ip), vehicle: Klucel (hydroxypropylcellulose) (HPC)) was 0 of 6.
With `CCCCCP(=O)(CCCCC)C1CCCC1` the survivor count (T/C endpoint: mean survival time, dose: 200.0 mg/kg/injection, schedule: Q04DX002 (ip), vehicle: saline with Tween-80) was 0 of 3 and the survivor count (T/C endpoint: mean survival time, dose: 400.0 mg/kg/injection, schedule: Q04DX002 (ip), vehicle: saline with Tween-80) was 0 of 3.
In the case of `S=C(N/N=C/C(c1ccccc1)c1ccccc1)Nc1ccccc1`, the survivor count [9] is reported as 6 of 6.
With `CC1(C)CCCC/C1=N\NC(N)=O` the survivor count (T/C endpoint: mean survival time, dose: 300.0 mg/kg/injection, schedule: Q04DX003 (ip), vehicle: saline sonified) was 0 of 6.
With `Cc1c2ccccc2c(C)c2c1c(F)cc1ccccc12` the T/C (T/C endpoint: mean survival time, dose: 75.0 mg/kg/injection, schedule: Q01DX001 (ip), vehicle: Klucel (hydroxypropylcellulose) (HPC)) was 134 % of control and the T/C (T/C endpoint: mean survival time, dose: 150.0 mg/kg/injection, schedule: Q01DX001 (ip), vehicle: Klucel (hydroxypropylcellulose) (HPC)) was 125 % of control.
`CCN(CC)CCCC(C)Nc1cc(/C=C/c2ccc(Cl)cc2)nc2ccc(N(C)C)cc12` (stereo not drawn) was tested, and the survivor count (T/C endpoint: mean survival time, dose: 25.0 mg/kg/injection, schedule: Q01DX009 (ip), vehicle: saline with Tween-80) was 4 of 6, the survivor count [7] was 0 of 6 and the survivor count [8] was 0 of 6. The survivor count [9] was 0 of 6 and the survivor count (T/C endpoint: mean survival time, dose: 400.0 mg/kg/injection, schedule: Q01DX009 (ip), vehicle: saline with Tween-80) was 0 of 6.
`CCCN(CCC)CC(C)(C)CO` was tested, and the survivor count [9] was 0 of 3.
